PubChem BioAssay AID504764 – Drosophila RNAi Screening Center – 2011
Aim: 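Knock-downs that raise or lower a Notch target reporter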 (primary screen). System: Drosophila Kc167 cells. Reagent: long dsRNA against Drosophila genes. Duration: about 5 days (4 days dsRNA, then 24 h after transfection). Challenge: transfection of constitutively active membrane-tethered Notch lacking the extracellular domain, read 24 h later. Detection: 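Firefly luciferase from an E(spl)m3 reporter with active Notch, plus control-promoter and uninduced reporter wells for normalisation; unnormalised counts, duplicate wells a and b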. Reading the numbers: induced reporter light, run 1, well a and induced reporter light, run 1, well b: higher = more light from the Notch target reporter with active Notch; control promoter light, run 1, well a and control promoter light, run 1, well b: higher = more light from the viral control promoter (cell number, transfection, viability); uninduced reporter light, run 1, well a: higher = more light from the Notch target reporter without active Notch. Hit rule: 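Wells with low control signal or poorly matching duplicates excluded; duplicates averaged; per source plate, z beyond ±2 for induced/control log2 ratio or beyond ±1.8 for induced/uninduced marks a hit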. Calls: active = modifier hit (raised or lowered Notch signal); inactive = not a hit.
The screen tested about 22,000 reagents; below is an unselected part of those with a known target gene and a result. Of all reagents, 403 (1.9%) got an active call. 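Unnormalised raw counts per well; ratio z-scores behind the hit calls and whether each hit raises or lowers signal are not deposited.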 Reagent sequences are not shown. Not given: the amount of reagent.

With Spn42Db [DRSC05009], what does the deposit list?
induced reporter light, run 1, well a: 2.90e5; induced reporter light, run 1, well b: 2.35e5; control promoter light, run 1, well a: 2.56e5; control promoter light, run 1, well b: 2.59e5; uninduced reporter light, run 1, well a: 22600; call: inactive

With nxf2 [DRSC10403], how do the results read?
induced reporter light, run 1, well a: 1.31e5; induced reporter light, run 1, well b: 1.25e5; control promoter light, run 1, well a: 93375; control promoter light, run 1, well b: 1.26e5; uninduced reporter light, run 1, well a: 9530; call: inactive

For Tdh [DRSC11788], what does the deposit list?
induced reporter light, run 1, well a: 1.52e5; induced reporter light, run 1, well b: 1.24e5; control promoter light, run 1, well a: 1.15e5; control promoter light, run 1, well b: 1.36e5; uninduced reporter light, run 1, well a: 9528; call: inactive

With tutl [DRSC00441], how do the results read?
induced reporter light, run 1, well a: 1.92e5; induced reporter light, run 1, well b: 1.78e5; control promoter light, run 1, well a: 1.91e5; control promoter light, run 1, well b: 1.80e5; uninduced reporter light, run 1, well a: 12610; call: inactive

With tutl [DRSC00442], what does the deposit list?
induced reporter light, run 1, well a: 2.99e5; induced reporter light, run 1, well b: 2.00e5; control promoter light, run 1, well a: 2.80e5; control promoter light, run 1, well b: 2.60e5; uninduced reporter light, run 1, well a: 14755; call: inactive

For tutl [DRSC00443], how do the results read?
induced reporter light, run 1, well a: 1.72e5; induced reporter light, run 1, well b: 2.02e5; control promoter light, run 1, well a: 1.70e5; control promoter light, run 1, well b: 1.99e5; uninduced reporter light, run 1, well a: 15520; call: inactive

Which result is listed for CG12299 [DRSC02158]?
induced reporter light, run 1, well a: 2.41e5; induced reporter light, run 1, well b: 2.05e5; control promoter light, run 1, well a: 2.19e5; control promoter light, run 1, well b: 2.53e5; uninduced reporter light, run 1, well a: 26510; call: inactive

What is on record for ATPCL [DRSC05913]?
induced reporter light, run 1, well a: 1.21e5; induced reporter light, run 1, well b: 1.14e5; control promoter light, run 1, well a: 1.39e5; control promoter light, run 1, well b: 1.16e5; uninduced reporter light, run 1, well a: 11185; call: inactive

Which result is listed for RpL13 [DRSC03416]?
induced reporter light, run 1, well a: 14540; induced reporter light, run 1, well b: 13940; control promoter light, run 1, well a: 17532; control promoter light, run 1, well b: 19610; uninduced reporter light, run 1, well a: 1065; call: inactive

How did the screen score tapas [DRSC05950]?
induced reporter light, run 1, well a: 1.19e5; induced reporter light, run 1, well b: 99395; control promoter light, run 1, well a: 2.04e5; control promoter light, run 1, well b: 2.20e5; uninduced reporter light, run 1, well a: 10300; call: inactive

Which result is listed for Rlb1 [DRSC16826]?
induced reporter light, run 1, well a: 96925; induced reporter light, run 1, well b: 77425; control promoter light, run 1, well a: 90495; control promoter light, run 1, well b: 63250; uninduced reporter light, run 1, well a: 5540; call: inactive

What is on record for CG15651 [DRSC04242]?
induced reporter light, run 1, well a: 48655; induced reporter light, run 1, well b: 41785; control promoter light, run 1, well a: 33400; control promoter light, run 1, well b: 46760; uninduced reporter light, run 1, well a: 1970; call: inactive

For CG10352 [DRSC19353], how do the results read?
induced reporter light, run 1, well a: 90510; induced reporter light, run 1, well b: 86795; control promoter light, run 1, well a: 1.22e5; control promoter light, run 1, well b: 1.40e5; uninduced reporter light, run 1, well a: 6950; call: inactive

For CG34302 [DRSC12751], what does the deposit list?
induced reporter light, run 1, well a: 1.51e5; induced reporter light, run 1, well b: 1.44e5; control promoter light, run 1, well a: 1.61e5; control promoter light, run 1, well b: 1.42e5; uninduced reporter light, run 1, well a: 11895; call: inactive

For CG3358 [DRSC04992], what was measured?
induced reporter light, run 1, well a: 1.80e5; induced reporter light, run 1, well b: 1.51e5; control promoter light, run 1, well a: 1.44e5; control promoter light, run 1, well b: 1.96e5; uninduced reporter light, run 1, well a: 11862; call: inactive

What did the screen give for CG10459 [DRSC05991]?
induced reporter light, run 1, well a: 1.58e5; induced reporter light, run 1, well b: 1.52e5; control promoter light, run 1, well a: 2.03e5; control promoter light, run 1, well b: 1.99e5; uninduced reporter light, run 1, well a: 12930; call: inactive

With mRpL41 [DRSC06257], how do the results read?
induced reporter light, run 1, well a: 66765; induced reporter light, run 1, well b: 88670; control promoter light, run 1, well a: 1.08e5; control promoter light, run 1, well b: 94235; uninduced reporter light, run 1, well a: 7470; call: inactive

Which result is listed for CG14787 [DRSC18606]?
induced reporter light, run 1, well a: 1.00e5; induced reporter light, run 1, well b: 1.08e5; control promoter light, run 1, well a: 2.25e5; control promoter light, run 1, well b: 2.17e5; uninduced reporter light, run 1, well a: 6882; call: inactive

3 of these entries in another layout:
{"gene":"tutl","dsRNA":"DRSC00442","induced reporter light, run 1, well a":2.99e5,"induced reporter light, run 1, well b":2.00e5,"control promoter light, run 1, well a":2.80e5,"control promoter light, run 1, well b":2.60e5,"uninduced reporter light, run 1, well a":14755,"call":"inactive"}
{"gene":"tutl","dsRNA":"DRSC00443","induced reporter light, run 1, well a":1.72e5,"induced reporter light, run 1, well b":2.02e5,"control promoter light, run 1, well a":1.70e5,"control promoter light, run 1, well b":1.99e5,"uninduced reporter light, run 1, well a":15520,"call":"inactive"}
{"gene":"CG12299","dsRNA":"DRSC02158","induced reporter light, run 1, well a":2.41e5,"induced reporter light, run 1, well b":2.05e5,"control promoter light, run 1, well a":2.19e5,"control promoter light, run 1, well b":2.53e5,"uninduced reporter light, run 1, well a":26510,"call":"inactive"}
